From the supplement of paper PMC7666118
Some of the results follow.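 Rule for the calls: active = dose-dependent thermal stabilisation significant by F-test of dose-response against flat model at 10% FDR; inactive = not significant.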

Protein sequences, listed by entry. Tags and fused reporters are not part of them. Lines headed by an entry give the natural chain unless they say otherwise; changes in a name come on top.
UniProt Q9UHB9: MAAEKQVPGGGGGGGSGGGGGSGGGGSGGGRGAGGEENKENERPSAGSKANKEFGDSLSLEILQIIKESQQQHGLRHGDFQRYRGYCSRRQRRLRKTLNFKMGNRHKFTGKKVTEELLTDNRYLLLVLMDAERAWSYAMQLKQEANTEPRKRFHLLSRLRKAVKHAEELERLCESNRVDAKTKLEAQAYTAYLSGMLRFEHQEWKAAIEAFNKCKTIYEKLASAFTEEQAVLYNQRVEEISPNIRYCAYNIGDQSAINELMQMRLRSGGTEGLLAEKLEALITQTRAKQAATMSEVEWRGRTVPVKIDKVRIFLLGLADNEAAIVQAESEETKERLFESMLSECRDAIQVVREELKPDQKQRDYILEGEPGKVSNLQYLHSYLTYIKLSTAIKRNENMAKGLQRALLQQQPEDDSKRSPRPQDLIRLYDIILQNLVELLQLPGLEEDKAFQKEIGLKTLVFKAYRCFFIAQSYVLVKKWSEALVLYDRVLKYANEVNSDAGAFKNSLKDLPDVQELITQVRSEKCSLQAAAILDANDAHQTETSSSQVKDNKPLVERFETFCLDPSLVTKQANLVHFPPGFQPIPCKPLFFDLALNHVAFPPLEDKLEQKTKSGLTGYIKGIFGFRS
UniProt P42285: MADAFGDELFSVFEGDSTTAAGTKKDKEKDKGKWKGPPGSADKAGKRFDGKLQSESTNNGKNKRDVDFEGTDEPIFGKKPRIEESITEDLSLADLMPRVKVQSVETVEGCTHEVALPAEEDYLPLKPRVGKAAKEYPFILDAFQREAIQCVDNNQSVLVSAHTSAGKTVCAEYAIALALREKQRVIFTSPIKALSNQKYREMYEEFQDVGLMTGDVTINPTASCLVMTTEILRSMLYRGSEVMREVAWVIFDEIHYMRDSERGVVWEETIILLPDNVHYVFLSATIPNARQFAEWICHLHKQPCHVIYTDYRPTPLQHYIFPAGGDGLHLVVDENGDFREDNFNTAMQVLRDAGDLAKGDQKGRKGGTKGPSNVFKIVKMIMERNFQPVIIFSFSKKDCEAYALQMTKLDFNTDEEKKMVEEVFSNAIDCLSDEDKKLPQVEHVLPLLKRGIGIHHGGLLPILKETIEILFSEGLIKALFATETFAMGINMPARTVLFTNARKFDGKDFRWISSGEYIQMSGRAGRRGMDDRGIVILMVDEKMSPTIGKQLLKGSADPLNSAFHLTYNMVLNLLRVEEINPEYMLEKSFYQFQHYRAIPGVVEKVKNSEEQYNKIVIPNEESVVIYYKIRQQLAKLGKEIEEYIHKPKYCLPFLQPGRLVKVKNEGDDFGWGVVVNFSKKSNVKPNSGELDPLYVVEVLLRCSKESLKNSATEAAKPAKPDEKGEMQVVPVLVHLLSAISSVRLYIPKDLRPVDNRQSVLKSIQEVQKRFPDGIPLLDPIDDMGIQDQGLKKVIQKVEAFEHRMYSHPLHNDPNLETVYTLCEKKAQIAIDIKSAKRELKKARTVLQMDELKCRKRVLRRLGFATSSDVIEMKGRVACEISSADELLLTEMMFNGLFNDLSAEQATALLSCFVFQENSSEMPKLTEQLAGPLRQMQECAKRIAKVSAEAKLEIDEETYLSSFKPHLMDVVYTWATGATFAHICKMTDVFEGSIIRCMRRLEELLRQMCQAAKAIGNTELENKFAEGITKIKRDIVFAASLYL
UniProt P50502: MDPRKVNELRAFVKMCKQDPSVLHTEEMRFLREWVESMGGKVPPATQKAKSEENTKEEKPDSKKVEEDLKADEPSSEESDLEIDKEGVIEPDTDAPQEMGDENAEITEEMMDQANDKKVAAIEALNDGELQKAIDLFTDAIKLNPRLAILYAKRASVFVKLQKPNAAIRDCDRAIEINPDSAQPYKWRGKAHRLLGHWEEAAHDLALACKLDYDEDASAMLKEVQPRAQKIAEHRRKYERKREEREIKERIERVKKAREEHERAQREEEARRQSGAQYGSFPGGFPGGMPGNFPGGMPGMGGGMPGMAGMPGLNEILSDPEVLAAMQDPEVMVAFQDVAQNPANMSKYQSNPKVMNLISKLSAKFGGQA
UniProt Q9P2R7: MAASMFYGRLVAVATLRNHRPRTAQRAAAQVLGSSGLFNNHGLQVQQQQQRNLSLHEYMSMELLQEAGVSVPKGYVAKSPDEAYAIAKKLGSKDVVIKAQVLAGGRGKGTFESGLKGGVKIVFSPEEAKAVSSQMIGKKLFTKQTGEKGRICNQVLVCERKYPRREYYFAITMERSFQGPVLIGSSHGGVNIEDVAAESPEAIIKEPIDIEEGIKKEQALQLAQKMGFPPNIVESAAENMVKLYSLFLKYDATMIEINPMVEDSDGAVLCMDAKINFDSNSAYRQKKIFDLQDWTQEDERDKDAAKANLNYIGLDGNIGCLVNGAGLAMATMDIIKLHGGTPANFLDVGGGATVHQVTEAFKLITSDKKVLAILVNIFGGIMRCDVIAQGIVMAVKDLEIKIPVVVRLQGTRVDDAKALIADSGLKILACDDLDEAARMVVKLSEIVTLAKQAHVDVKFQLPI
UniProt Q8N3U4: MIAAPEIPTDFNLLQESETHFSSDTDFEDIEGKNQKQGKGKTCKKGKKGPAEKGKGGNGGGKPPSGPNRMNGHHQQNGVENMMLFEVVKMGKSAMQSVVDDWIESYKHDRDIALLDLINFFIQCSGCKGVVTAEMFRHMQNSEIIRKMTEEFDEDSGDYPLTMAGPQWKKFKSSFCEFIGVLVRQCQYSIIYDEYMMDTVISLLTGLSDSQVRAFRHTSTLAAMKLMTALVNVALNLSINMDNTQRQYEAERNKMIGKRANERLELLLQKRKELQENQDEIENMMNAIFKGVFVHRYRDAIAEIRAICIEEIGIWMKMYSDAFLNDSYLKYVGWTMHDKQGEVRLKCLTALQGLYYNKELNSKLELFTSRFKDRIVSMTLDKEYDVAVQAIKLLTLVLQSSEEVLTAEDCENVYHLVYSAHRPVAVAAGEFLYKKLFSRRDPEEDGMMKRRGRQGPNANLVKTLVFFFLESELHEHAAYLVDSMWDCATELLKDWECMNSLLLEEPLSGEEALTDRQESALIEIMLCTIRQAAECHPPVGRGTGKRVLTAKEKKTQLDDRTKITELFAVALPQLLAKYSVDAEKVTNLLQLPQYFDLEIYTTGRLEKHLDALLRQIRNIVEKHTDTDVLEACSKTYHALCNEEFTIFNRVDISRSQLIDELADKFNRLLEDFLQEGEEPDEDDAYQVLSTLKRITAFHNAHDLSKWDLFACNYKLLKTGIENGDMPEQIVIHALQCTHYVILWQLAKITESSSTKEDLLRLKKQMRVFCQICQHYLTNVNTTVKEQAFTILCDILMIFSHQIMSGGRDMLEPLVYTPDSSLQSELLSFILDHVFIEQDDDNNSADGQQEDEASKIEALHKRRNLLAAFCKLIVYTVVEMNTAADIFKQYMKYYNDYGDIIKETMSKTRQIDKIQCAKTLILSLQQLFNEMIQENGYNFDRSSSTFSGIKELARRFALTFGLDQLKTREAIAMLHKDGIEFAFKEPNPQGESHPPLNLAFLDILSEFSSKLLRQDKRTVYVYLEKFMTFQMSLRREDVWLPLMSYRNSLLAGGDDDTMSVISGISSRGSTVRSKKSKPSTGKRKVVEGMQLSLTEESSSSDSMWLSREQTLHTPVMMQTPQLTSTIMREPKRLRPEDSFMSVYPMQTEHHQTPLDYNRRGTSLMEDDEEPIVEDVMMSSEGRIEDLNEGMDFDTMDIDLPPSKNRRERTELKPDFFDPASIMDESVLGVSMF
UniProt Q8IY18: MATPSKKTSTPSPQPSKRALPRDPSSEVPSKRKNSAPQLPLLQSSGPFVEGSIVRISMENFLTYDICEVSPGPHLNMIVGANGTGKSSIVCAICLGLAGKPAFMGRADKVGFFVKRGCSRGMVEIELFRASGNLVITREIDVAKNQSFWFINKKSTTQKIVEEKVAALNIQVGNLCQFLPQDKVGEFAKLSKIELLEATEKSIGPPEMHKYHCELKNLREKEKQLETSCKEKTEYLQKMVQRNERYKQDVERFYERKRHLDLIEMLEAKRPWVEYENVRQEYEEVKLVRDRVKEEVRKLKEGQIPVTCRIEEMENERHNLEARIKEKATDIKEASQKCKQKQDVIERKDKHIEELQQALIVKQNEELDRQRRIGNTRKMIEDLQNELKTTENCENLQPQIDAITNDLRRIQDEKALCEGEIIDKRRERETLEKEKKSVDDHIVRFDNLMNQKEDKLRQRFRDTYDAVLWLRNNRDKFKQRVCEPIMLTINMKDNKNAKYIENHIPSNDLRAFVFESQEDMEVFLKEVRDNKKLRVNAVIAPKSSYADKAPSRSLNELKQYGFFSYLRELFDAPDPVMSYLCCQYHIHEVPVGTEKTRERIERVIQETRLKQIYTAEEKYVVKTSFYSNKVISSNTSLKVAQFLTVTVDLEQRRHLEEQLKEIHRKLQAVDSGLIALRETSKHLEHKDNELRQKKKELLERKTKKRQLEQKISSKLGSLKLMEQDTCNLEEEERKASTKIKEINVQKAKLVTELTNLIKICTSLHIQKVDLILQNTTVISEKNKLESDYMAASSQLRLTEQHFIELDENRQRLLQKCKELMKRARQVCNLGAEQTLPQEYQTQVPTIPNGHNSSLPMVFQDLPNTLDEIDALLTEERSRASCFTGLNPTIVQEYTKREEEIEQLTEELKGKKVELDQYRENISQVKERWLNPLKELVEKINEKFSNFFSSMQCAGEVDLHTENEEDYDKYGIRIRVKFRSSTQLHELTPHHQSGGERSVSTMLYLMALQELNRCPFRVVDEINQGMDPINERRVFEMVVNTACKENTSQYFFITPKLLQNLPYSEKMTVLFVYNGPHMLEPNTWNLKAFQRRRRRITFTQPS
UniProt P08621, whole entry: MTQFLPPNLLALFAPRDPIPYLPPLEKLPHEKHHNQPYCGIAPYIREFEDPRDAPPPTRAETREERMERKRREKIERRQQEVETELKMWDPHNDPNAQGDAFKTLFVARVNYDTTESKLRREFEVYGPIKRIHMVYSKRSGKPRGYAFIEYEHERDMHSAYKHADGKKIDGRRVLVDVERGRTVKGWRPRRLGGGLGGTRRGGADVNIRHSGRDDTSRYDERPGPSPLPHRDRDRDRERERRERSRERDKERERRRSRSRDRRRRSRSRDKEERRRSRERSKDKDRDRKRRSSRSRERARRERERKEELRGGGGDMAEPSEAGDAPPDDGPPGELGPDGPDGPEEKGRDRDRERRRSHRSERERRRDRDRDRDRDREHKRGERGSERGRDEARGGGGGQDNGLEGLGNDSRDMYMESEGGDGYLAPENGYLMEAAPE
UniProt Q96H20: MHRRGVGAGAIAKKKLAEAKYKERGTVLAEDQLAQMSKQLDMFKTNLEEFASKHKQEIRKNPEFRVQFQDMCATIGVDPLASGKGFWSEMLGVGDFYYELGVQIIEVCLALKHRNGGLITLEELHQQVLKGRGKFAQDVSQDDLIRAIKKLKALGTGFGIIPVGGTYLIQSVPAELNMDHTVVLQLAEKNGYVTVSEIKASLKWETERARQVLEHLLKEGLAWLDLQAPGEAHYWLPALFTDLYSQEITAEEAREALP
UniProt Q8NEF9: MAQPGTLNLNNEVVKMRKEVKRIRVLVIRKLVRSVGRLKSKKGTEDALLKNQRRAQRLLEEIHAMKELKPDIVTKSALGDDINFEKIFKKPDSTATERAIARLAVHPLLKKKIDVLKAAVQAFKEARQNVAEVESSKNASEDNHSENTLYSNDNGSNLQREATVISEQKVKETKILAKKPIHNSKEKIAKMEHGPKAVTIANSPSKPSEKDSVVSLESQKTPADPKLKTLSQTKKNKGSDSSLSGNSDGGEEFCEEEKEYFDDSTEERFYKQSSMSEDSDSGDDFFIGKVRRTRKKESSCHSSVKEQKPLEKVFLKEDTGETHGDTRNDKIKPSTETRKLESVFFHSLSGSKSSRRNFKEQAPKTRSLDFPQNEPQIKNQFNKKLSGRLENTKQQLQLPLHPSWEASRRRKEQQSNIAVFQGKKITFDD
UniProt Q15833: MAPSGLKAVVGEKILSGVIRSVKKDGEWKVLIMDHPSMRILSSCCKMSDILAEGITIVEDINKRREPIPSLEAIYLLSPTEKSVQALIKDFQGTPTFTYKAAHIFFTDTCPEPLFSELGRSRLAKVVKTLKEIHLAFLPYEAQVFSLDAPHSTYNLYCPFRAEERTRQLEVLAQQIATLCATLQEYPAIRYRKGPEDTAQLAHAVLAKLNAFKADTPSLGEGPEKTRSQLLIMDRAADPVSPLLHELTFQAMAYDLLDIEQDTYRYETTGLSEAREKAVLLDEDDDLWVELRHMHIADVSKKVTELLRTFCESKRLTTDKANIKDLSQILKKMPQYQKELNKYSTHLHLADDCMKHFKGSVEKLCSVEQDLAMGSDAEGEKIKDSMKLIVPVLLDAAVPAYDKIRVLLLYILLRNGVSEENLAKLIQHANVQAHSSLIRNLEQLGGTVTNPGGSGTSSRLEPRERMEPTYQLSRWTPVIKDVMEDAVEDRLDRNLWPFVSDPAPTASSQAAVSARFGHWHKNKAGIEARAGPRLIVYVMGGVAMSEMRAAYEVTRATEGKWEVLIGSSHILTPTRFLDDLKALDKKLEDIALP

What follows are targets tested with Nc1nc2c(ncn2[C@@H]2O[C@H](COP(=O)(O)OP(=O)(O)OP(=O)(O)O)[C@@H](O)[C@H]2O)c(=O)[nH]1 (assay: dose-dependent thermal stabilisation call (2D-TPP, DLPTP, 10% FDR) (binary (1 = stabilised)); higher = stabilised by the compound). Conditions: system: Jurkat gel-filtered lysate; concentration range 1-500 µM.

Target	dose-dependent thermal stabilisation call
SRP68 (UniProt Q9UHB9)	active: 1
SKIV2L2 (UniProt P42285)	inactive: 0
SPATA5L1 (UniProt Q9BVQ7)	active: 1
SNX6 (UniProt Q9UNH7)	inactive: 0
STARD7 (UniProt Q9NQZ5)	inactive: 0
ST13 (UniProt P50502)	inactive: 0
SUCLA2 (UniProt Q9P2R7)	active: 1
STAG2 (UniProt Q8N3U4)	inactive: 0
STK4 (UniProt Q13043)	inactive: 0
SNAPIN (UniProt O95295)	inactive: 0
STRAP (UniProt Q9Y3F4)	inactive: 0
SMC5 (UniProt Q8IY18)	active: 1
SRP54 (UniProt P61011)	active: 1
SNRNP70 (UniProt P08621)	active: 1
SPIN1 (UniProt Q9Y657)	inactive: 0
SHC1 (UniProt P29353)	inactive: 0
TAF6L (UniProt Q9Y6J9)	inactive: 0
STX6 (UniProt O43752)	inactive: 0
SUMO2 (UniProt P61956)	inactive: 0
SUPT16H (UniProt Q9Y5B9)	inactive: 0
SNF8 (UniProt Q96H20)	inactive: 0
SMYD5 (UniProt Q6GMV2)	inactive: 0
SNX5 (UniProt Q9Y5X3)	inactive: 0
SRFBP1 (UniProt Q8NEF9)	inactive: 0
STXBP2 (UniProt Q15833)	active: 1
SIPA1 (UniProt Q96FS4)	inactive: 0
STRN (UniProt O43815)	inactive: 0

2 successive entries from above, quoted:
Target	dose-dependent thermal stabilisation call
STX6 (UniProt O43752)	inactive: 0
SUMO2 (UniProt P61956)	inactive: 0
